Earlier results in patent publication US20080234362A1, “Treatment for Asthma and Arthritis and Other Inflammatory Diseases” (BIONOVATE LIMITED, priority 2004, published 2008).
For at least one compound, name, drawing or mass did not settle the structure.

Details: in vitro; cited from earlier work

For `C[C@@H]1O[C@@H](OC[C@H]2O[C@@H](Oc3c(-c4ccc(O)c(O)c4)oc4cc(O)cc(O)c4c3=O)[C@H](O)[C@@H](O)[C@@H]2O)[C@H](O)[C@H](O)[C@H]1O` [rutin, Rutin], the “antioxidant efficiency versus traditional vitamins” value is given as “more efficient antioxidants than traditional vitamins”.
